In article PMC5385568:
No constants are given. Whether binding was seen depends on the method and setting. In cells and extracts the contact can be indirect. Some entries that bind do so weakly or less than the wild type. Tags and fused reporters may be left off the sequences shown.

Amino acid sequences for entries named in this document (tags omitted).
UniProt O08788: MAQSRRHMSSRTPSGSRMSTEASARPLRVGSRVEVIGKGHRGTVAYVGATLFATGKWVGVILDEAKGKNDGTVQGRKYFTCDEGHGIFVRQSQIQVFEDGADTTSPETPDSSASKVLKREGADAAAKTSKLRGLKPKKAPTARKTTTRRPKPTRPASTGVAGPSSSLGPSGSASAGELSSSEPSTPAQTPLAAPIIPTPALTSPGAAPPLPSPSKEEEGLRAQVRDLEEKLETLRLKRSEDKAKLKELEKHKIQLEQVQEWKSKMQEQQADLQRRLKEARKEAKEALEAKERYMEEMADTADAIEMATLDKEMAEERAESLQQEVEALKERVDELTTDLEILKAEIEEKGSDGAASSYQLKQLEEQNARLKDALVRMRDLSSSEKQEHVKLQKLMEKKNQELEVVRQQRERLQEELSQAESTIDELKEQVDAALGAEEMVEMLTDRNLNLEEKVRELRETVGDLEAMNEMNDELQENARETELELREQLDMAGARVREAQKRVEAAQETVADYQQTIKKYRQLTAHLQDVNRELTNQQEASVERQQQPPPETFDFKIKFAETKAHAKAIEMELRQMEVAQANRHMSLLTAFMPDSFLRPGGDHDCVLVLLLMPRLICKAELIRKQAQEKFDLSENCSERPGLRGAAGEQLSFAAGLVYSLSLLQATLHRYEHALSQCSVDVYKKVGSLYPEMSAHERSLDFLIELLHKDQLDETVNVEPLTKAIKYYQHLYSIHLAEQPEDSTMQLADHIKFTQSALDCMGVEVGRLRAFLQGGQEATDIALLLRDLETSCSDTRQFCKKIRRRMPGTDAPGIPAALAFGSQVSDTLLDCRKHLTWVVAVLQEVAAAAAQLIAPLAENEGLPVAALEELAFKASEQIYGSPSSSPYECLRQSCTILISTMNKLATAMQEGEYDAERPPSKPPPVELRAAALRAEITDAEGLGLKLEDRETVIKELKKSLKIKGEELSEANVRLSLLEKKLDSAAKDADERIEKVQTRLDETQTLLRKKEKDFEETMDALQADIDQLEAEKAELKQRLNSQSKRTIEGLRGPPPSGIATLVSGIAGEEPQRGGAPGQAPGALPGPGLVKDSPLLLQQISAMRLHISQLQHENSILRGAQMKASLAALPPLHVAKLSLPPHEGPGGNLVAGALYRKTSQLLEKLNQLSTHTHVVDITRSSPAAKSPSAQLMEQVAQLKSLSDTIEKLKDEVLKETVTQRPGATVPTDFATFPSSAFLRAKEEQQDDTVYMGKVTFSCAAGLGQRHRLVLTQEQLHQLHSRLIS

Target: T1, GST-tagged human Stonin 2 (amino acids 1–555) (human) (UniProt Q8WXE9)
T1 sequence: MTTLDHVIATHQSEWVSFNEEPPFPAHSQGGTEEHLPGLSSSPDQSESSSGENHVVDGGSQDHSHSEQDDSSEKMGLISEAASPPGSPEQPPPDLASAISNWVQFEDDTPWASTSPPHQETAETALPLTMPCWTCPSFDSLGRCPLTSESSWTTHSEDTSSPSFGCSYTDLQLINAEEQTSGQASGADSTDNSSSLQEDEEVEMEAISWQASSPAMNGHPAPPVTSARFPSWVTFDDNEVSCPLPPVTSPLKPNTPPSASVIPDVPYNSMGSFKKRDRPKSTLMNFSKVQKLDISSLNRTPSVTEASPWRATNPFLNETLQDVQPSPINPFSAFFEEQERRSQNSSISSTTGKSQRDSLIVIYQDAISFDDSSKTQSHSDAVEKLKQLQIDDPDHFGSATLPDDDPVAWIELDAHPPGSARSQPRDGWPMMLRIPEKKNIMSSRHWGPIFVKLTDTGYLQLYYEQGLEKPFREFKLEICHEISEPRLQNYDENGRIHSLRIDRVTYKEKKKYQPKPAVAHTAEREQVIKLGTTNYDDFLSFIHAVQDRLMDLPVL
Assay: pull-down; 50 μg recombinant purified GST fusion protein as bait with detergent-extracted mouse brain lysate; 10 mM HEPES pH 7.4, 150 mM NaCl, 2 mM DTT, 0.05% Triton X-100; 2 h at 4 °C; immunoblotting; only the target purified

Substance: endogenous p150^Glued subunit of dynactin (mouse brain) (from UniProt O08788 1-1281)
- binding: binds
